Measured values from PubChem BioAssay AID504467 (National Center for Advancing Translational Sciences (NCATS), 2011).
Out of some 330,000 compounds screened, about 7,700 (2.3%) were called active. The shares of active, inactive and inconclusive entries below differ from those in the screen. Calls follow the shape of the dose curve; as a rule, active = well fitted inhibition curve with a large enough effect; inconclusive = small, poorly fitted or top-dose-only effect, or effect the other way; inactive = flat fitted curve, though single readings scatter. Potencies of inconclusive entries are doubtful fits and often do not repeat.

Assay: qHTS screen for small molecules that inhibit ELG1-dependent DNA repair in human embryonic kidney (HEK293T) cells expressing luciferase-tagged ELG1; also: nearly all actives have a fitted effect of over 55% in size
Conditions: HEK293T ELG1-luciferase reporter, luminescence, 16 h, DNA damage induced by 5-fluorouridine; activity change, negative = inhibition: at 46.1 µM (top of the series)
How it was run: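 5-Fluorouridine DNA damage + compound/DMSO, 2,000 cells/well, 16 h, 37 °C/5% CO2. ONE-Glo, 30 min RT, luminescence. Readout = decrease in reporter signal.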
% is scaled to controls: 0 for no effect and ±100 for the full control effect; potency is read from the fitted curve at half-maximal effect.

Row | SMILES | activity change, negative = inhibition | Potency
1 | COc1ccc(NC(=S)Nc2ccc(F)cc2)cc1 | inactive: -0.875% | –
2 | COc1cc(/C=C2\CC/C(=C\c3cc(OC)c(OC)c(OC)c3)C2=O)cc(OC)c1OC | – | inconclusive: 20.6 µM [inhibitor, single point]
3 | CC(=O)NCCc1nc2ccccc2n1CCOc1ccccc1C | inactive: -2.83% | –
4 | COc1cc(-c2cc(-c3ccc(F)cc3)nc(N)c2C#N)ccc1O | – | inconclusive: 6.51 µM [inhibitor, full curve]
5 | Cc1[nH]n(C(N)=S)c(=O)c1C(c1ccccc1)C(C#N)C#N (configuration not stated) | – | inconclusive: 20.6 µM [activator, single point]
6 | O=C(c1cccs1)N1CCN=C1SCc1ccc(F)cc1 | inactive: 7.53% | –
7 | CCOC(=O)N1CCN(S(=O)(=O)c2ccc(OC)c(Br)c2)CC1 | – | inconclusive: 12.6 µM [activator, single point]
8 | O=C(Nc1cc(Sc2ccccn2)cc([N+](=O)[O-])c1)c1cccc(Cl)c1 | – | active: 6.51 µM
9 | CC1=Nc2cc(C(=O)NCc3ccco3)ccc2Sc2ccc(C)cc21 | – | inconclusive: 16.4 µM [activator, single point]
10 | O=C(CSc1nc(C2CC2)nc2ccccc12)Nc1ccccc1N1CCOCC1 | – | inconclusive: 16.4 µM [inhibitor, single point]
11 | Cc1n[nH]c(=S)n(/N=C/c2cccs2)c1=O | inactive: 15.6% | –
12 | CCN(C[C@H]1N[C@@](Cc2ccccc2)(C(=O)OC)[C@H]2C(=O)N(C)C(=O)[C@@H]12)C(=O)COC | inactive: 20.2% | –
13 | O=C(COc1ccc(-c2nnco2)cc1)NC1CCS(=O)(=O)C1 (configuration not stated) | – | inconclusive: 20.6 µM [activator, partial curve]
14 | COc1cccc(-c2cc(C(=O)Nc3cc(C)on3)no2)c1 | – | inconclusive: 23.1 µM [activator, partial curve]
15 | CC(=O)Nc1ccc(C(=O)N2CCCc3ccccc32)cc1 | inactive: 0.11% | –
16 | CCCNC(=S)N1CCN(C(c2ccccc2)c2ccccc2)CC1 | inactive: 1.82% | –
17 | CO/C(N)=C(\C#N)N=Cc1ccccc1Cl | – | inconclusive: 25.9 µM [activator, single point]
18 | O=C(NC(=S)Nc1ccc(O)cc1)c1ccccc1Cl | – | inconclusive: 16.4 µM [activator, partial curve]
19 | Cc1ccc(-c2noc(CSc3nnnn3C3CCCCC3)n2)cc1 | inactive: -2.76% | –
20 | COc1ccc(C(=O)N=C2CCC(C#N)=C3c4cc(OC)c(OC)cc4CCN23)cc1 | inactive: -0.818% | –
21 | Cc1onc(-c2ccccc2Cl)c1C(=O)NC1CCCCCC1 | inactive: -7.18% | –
22 | Cc1c(N)cccc1-c1nc2ccccc2[nH]1 | – | inconclusive: 14.6 µM [activator, partial curve]
23 | CSc1nc(=S)n(-c2ccc([N+](=O)[O-])cc2)c(C)c1C(C)=O | inactive: 0% | –
24 | CC(C)(C)c1cc(NCCCn2ccnc2)n2ncc(-c3ccc(Cl)cc3)c2n1 | – | inconclusive: 6.31 µM [activator, single point]

Row | SMILES | activity change, negative = inhibition | Potency
25 | COC(=O)c1c(-c2ccc(C)cc2)csc1NC(=S)NC(=O)c1cc(OC)cc(OC)c1 | – | inconclusive: 20.6 µM [inhibitor, single point]
26 | CC(C)Cc1nc2sc3c(c2c(=O)n1N)CC(C(C)C)OC3 (configuration not stated) | – | inconclusive: 20.6 µM [inhibitor, single point]
27 | CCS(=O)(=O)N1Cc2ccccc2CC1C(=O)N(C)CC(=O)Nc1cccc(F)c1 (configuration not stated) | – | inconclusive: 23.1 µM [activator, single point]
28 | O=C(NCC(c1cccs1)N1CCOCC1)c1ccc(Cl)s1 (configuration not stated) | – | inconclusive: 3.66 µM [inhibitor, single point]
29 | COc1ccc(Cl)cc1C(=O)Nn1c(-c2cccs2)nc2ccccc2c1=O | – | active: 6.51 µM
30 | O=C(NCc1ccccc1)c1ccc(Br)cc1Br | – | inconclusive: 16.4 µM [activator, partial curve, poor fit]
31 | Cc1ccc(-c2nnc(Nc3ccc(O)cc3)c3ccccc23)cc1S(=O)(=O)NCCO | – | inconclusive: 22.4 µM [inhibitor, single point]
32 | COc1ccc(OCc2cc(C(=O)N3CCN(CC4CC4)CC3)no2)c(Cl)c1 | – | inconclusive: 16.4 µM [activator, partial curve]
33 | COc1ccc(/C=N/NS(=O)(=O)c2ccccc2)cc1OC | – | active: 18.3 µM
34 | O=C(Nc1cccc([N+](=O)[O-])c1)N1CCCc2ccccc21 | – | inconclusive: 13 µM [activator, partial curve]
35 | CCCCCOc1ccc(NC(=O)CSc2cccc3cccnc23)cc1 | inactive: -0.399% | –
36 | O=C(Nc1ccc(F)cc1F)c1cc(-c2ccc3c(c2)OCO3)on1 | – | inconclusive: 2.91 µM [activator, partial curve]
37 | CC(CCc1ccccc1)NC(=O)c1ccc(C(=O)NC(C)CCc2ccccc2)cc1 (configuration not stated) | – | active: 5.17 µM
38 | CN(C)c1ccc(S(=O)(=O)N2CCCCC2)cc1NC(=O)CCNC(=O)c1ccc(Cl)cc1 | inactive: 2.2% | –
39 | CN(Cc1ccccc1)C(=O)COC(=O)/C=C/c1ccc2c(c1)OCO2 | – | inconclusive: 9.2 µM [activator, partial curve]
40 | Cc1cc(C)cc(OCc2ccc(C(=O)O)o2)c1 | – | inconclusive: 22.4 µM [activator, single point]
41 | O=C(NCCOc1ccc(Cl)cc1)c1cccc(S(=O)(=O)N2CCCC2)c1 | – | active: 8.91 µM
42 | CC12CCC(C(=O)NCc3ccc4c(c3)OCO4)(OC1=O)C2(C)C (configuration not stated) | – | inconclusive: 0.92 µM [activator, single point]
43 | S=c1[nH]nc(-c2ccccn2)n1/N=C/c1ccc(Cl)cc1 | – | inconclusive: 6.51 µM [inhibitor, single point]
44 | O=C(Nc1ccc(F)c(F)c1)c1ccc(F)c(S(=O)(=O)N2CCC3(CC2)OCCO3)c1 | – | active: 7.3 µM
45 | C[C@@]12CC[C@H]3OC(=O)C=C3C1CC[C@@]13CC(CCC12)[C@](CO)(O[C@H]1O[C@H](CO)[C@@H](O)[C@H](O)[C@H]1O)C3 (some centres not stated) | inactive: -0.589% | –
46 | CCN(Cc1ccccc1)S(=O)(=O)c1ccc(OC)cc1 | – | inconclusive: 29.1 µM [inhibitor, single point]
47 | C/C(=N\Nc1ccc(Cl)cc1)c1ccncc1 | – | inconclusive: 23.1 µM [activator, single point]

Some of the entries above in another layout.
Row	SMILES	activity change, negative = inhibition	Potency
1	COc1ccc(NC(=S)Nc2ccc(F)cc2)cc1	inactive: -0.875%	–
2	COc1cc(/C=C2\CC/C(=C\c3cc(OC)c(OC)c(OC)c3)C2=O)cc(OC)c1OC	–	inconclusive: 20.6 µM [inhibitor, single point]
3	CC(=O)NCCc1nc2ccccc2n1CCOc1ccccc1C	inactive: -2.83%	–
4	COc1cc(-c2cc(-c3ccc(F)cc3)nc(N)c2C#N)ccc1O	–	inconclusive: 6.51 µM [inhibitor, full curve]
5	Cc1[nH]n(C(N)=S)c(=O)c1C(c1ccccc1)C(C#N)C#N (configuration not stated)	–	inconclusive: 20.6 µM [activator, single point]
6	O=C(c1cccs1)N1CCN=C1SCc1ccc(F)cc1	inactive: 7.53%	–
7	CCOC(=O)N1CCN(S(=O)(=O)c2ccc(OC)c(Br)c2)CC1	–	inconclusive: 12.6 µM [activator, single point]
8	O=C(Nc1cc(Sc2ccccn2)cc([N+](=O)[O-])c1)c1cccc(Cl)c1	–	active: 6.51 µM
9	CC1=Nc2cc(C(=O)NCc3ccco3)ccc2Sc2ccc(C)cc21	–	inconclusive: 16.4 µM [activator, single point]
10	O=C(CSc1nc(C2CC2)nc2ccccc12)Nc1ccccc1N1CCOCC1	–	inconclusive: 16.4 µM [inhibitor, single point]
